Source: PubChem BioAssay (NCI)
Most of the hits are listed elsewhere, so they are rarer here than in the full data. The source made the active and inactive calls. No stated cut-off is given here; in the data, active means growth inhibition above about 70%; inactive means the rest.

What was measured:
[1] = NCI Yeast Anticancer Drug Screen. Data for the rad52 strain (AID 147);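 further: 0% = growth of vehicle-treated control cultures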; settings: S. cerevisiae rad52 mutant growth inhibition, hits give high values
How it was run: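 Growth of repair-deficient yeast cells was compared between compound-treated and vehicle-treated cultures to give percent inhibition.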

[2] = NCI Yeast Anticancer Drug Screen. Data for the wt1 strain (AID 149);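 further: 0% = growth of vehicle-treated wt1 cultures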; settings: S. cerevisiae wt1 strain (SPY 50644) growth inhibition, hits give high values
How it was run: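 wt1 strain grown with compound or vehicle; inhibition taken from the growth difference.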

[3] = NCI Yeast Anticancer Drug Screen. Data for the rad50EPP+ strain (AID 151);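 further: 0% = growth of vehicle-treated control cultures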; settings: S. cerevisiae rad50 mutant strain, hits give high values
How it was run: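 Measured: growth inhibition of rad50EPP+ yeast. Reference: vehicle-treated controls. Screen uses strains with defined genetic alterations in DNA damage repair or cell cycle control.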

[4] = NCI Yeast Anticancer Drug Screen. Data for the rad14 strain (AID 159);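 further: 0% = growth of vehicle-treated control cultures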; settings: S. cerevisiae rad14 strain growth inhibition, hits give high values
How it was run: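 DNA repair-defective yeast, compound-exposed; % growth inhibition derived by comparison with vehicle-treated controls.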

[5] = NCI Yeast Anticancer Drug Screen. Data for the CLN2oe strain (AID 163);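 further: 0% = growth of vehicle-only control cultures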; settings: S. cerevisiae CLN2oe strain, hits give high values
How it was run: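 Cells of an engineered yeast line with disturbed cell-cycle regulation are treated with compound. Inhibition of growth is then calculated relative to the vehicle-treated reference.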

[6] = NCI Yeast Anticancer Drug Screen. Data for the wt2 strain (AID 169);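 further: 0% = growth of vehicle-treated yeast cultures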; settings: S. cerevisiae wt2 strain growth inhibition, hits give high values
How it was run: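 Growth of compound-treated yeast is measured and expressed as inhibition relative to vehicle-only controls.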

[7] = NCI Yeast Anticancer Drug Screen. Data for the mlh1 strain (AID 171);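 further: 0% = growth of vehicle-treated control cultures of the same strain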; settings: S. cerevisiae mlh1 strain growth inhibition, hits give high values
How it was run: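 Test agents were incubated with yeast bearing a defined DNA damage repair or cell cycle control alteration; values are growth inhibition normalised to vehicle-treated cultures.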

[8] = NCI Yeast Anticancer Drug Screen. Data for the sgs1 strain (AID 173);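 further: 0% = growth of vehicle-only control cultures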; settings: S. cerevisiae sgs1 mutant, hits give high values
How it was run: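 Strain with an altered DNA repair or cell cycle pathway exposed to compound. Growth then measured. Value = inhibition versus vehicle control.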

Measured: growth inhibition

Cc1cc[c]([Sb]2[O]C(CO)C(C(O)C(O)C(=O)O)[O]2)cc1 (stereo not given)
inactive: [1]; at 1.2 µM 0% | [1]; at 3.7 µM 2% | [1]; at 11.0 µM 0% | [1]; at 33.0 µM -4% | [1]; at 100.0 µM -9% | [2]; at 1.2 µM 1% | [2]; at 3.7 µM -1% | [2]; at 11.0 µM 1% | [2]; at 33.0 µM 0% | [2]; at 100.0 µM -1% | [3]; at 1.2 µM -1% | [3]; at 3.7 µM -1% | [3]; at 11.0 µM -1% | [3]; at 33.0 µM -3% | [3]; at 100.0 µM 0% | [4]; at 1.2 µM -2% | [4]; at 3.7 µM -6% | [4]; at 11.0 µM 4% | [4]; at 33.0 µM 6% | [4]; at 100.0 µM 8% | [5]; at 1.2 µM 0% | [5]; at 3.7 µM 2% | [5]; at 11.0 µM 1% | [5]; at 33.0 µM 4% | [5]; at 100.0 µM 6% | [6]; at 1.2 µM 0% | [6]; at 3.7 µM 2% | [6]; at 11.0 µM 2% | [6]; at 33.0 µM 3% | [6]; at 100.0 µM 5% | [7]; at 1.2 µM -1% | [7]; at 3.7 µM -4% | [7]; at 11.0 µM -8% | [7]; at 33.0 µM -10% | [7]; at 100.0 µM -4% | [8]; at 1.2 µM -2% | [8]; at 3.7 µM -3% | [8]; at 11.0 µM -3% | [8]; at 33.0 µM -3% | [8]; at 100.0 µM -3%

O=C(CCN1CC1)Nc1ccccc1
inactive: [1]; at 1.2 µM -1% | [1]; at 3.7 µM 1% | [1]; at 11.0 µM 1% | [1]; at 33.0 µM -4% | [1]; at 100.0 µM 51% | [2]; at 1.2 µM -2% | [2]; at 3.7 µM -2% | [2]; at 11.0 µM -3% | [2]; at 33.0 µM -1% | [2]; at 100.0 µM 52% | [3]; at 1.2 µM -1% | [3]; at 3.7 µM 4% | [3]; at 11.0 µM 4% | [3]; at 33.0 µM 7% | [3]; at 100.0 µM 0% | [4]; at 1.2 µM -1% | [4]; at 3.7 µM -6% | [4]; at 11.0 µM -2% | [4]; at 33.0 µM 2% | [4]; at 100.0 µM 52% | [5]; at 1.2 µM 3% | [5]; at 3.7 µM -1% | [5]; at 11.0 µM 3% | [5]; at 33.0 µM -2% | [5]; at 100.0 µM 51% | [6]; at 1.2 µM 2% | [6]; at 3.7 µM 3% | [6]; at 11.0 µM 3% | [6]; at 33.0 µM 1% | [6]; at 100.0 µM 48% | [7]; at 1.2 µM 7% | [7]; at 3.7 µM 0% | [7]; at 11.0 µM -3% | [7]; at 33.0 µM -2% | [7]; at 100.0 µM 47% | [8]; at 1.2 µM 2% | [8]; at 3.7 µM 5% | [8]; at 11.0 µM 6% | [8]; at 33.0 µM 5% | [8]; at 100.0 µM 48%

O=P1(NNc2ncccn2)SC(NN=C2CCCCC2)=NC12CCCCC2 (stereo not given)
inactive: [1]; at 1.2 µM -2% | [1]; at 3.7 µM -4% | [1]; at 11.0 µM -1% | [1]; at 33.0 µM -1% | [1]; at 100.0 µM 4% | [2]; at 1.2 µM -1% | [2]; at 3.7 µM 0% | [2]; at 11.0 µM 0% | [2]; at 33.0 µM 6% | [2]; at 100.0 µM 13% | [3]; at 1.2 µM -3% | [3]; at 3.7 µM -4% | [3]; at 11.0 µM -3% | [3]; at 33.0 µM -3% | [3]; at 100.0 µM 2% | [4]; at 1.2 µM -1% | [4]; at 3.7 µM 1% | [4]; at 11.0 µM -1% | [4]; at 33.0 µM -3% | [4]; at 100.0 µM 6% | [5]; at 1.2 µM -6% | [5]; at 3.7 µM -10% | [5]; at 11.0 µM -14% | [5]; at 33.0 µM -9% | [5]; at 100.0 µM -2% | [6]; at 1.2 µM -2% | [6]; at 3.7 µM -3% | [6]; at 11.0 µM -2% | [6]; at 33.0 µM -4% | [6]; at 100.0 µM 3% | [7]; at 1.2 µM -4% | [7]; at 3.7 µM -4% | [7]; at 11.0 µM -2% | [7]; at 33.0 µM 1% | [7]; at 100.0 µM 10% | [8]; at 1.2 µM -3% | [8]; at 3.7 µM -3% | [8]; at 11.0 µM -2% | [8]; at 33.0 µM -1% | [8]; at 100.0 µM 6%

CCOC(=O)CNP(=S)(OCC)OCC
inactive: [1]; at 1.2 µM 0% | [1]; at 3.7 µM 2% | [1]; at 11.0 µM 2% | [1]; at 33.0 µM 5% | [1]; at 100.0 µM 4% | [2]; at 1.2 µM -2% | [2]; at 3.7 µM -1% | [2]; at 11.0 µM 0% | [2]; at 33.0 µM 0% | [2]; at 100.0 µM 2% | [3]; at 1.2 µM -3% | [3]; at 3.7 µM -5% | [3]; at 11.0 µM -3% | [3]; at 33.0 µM -6% | [3]; at 100.0 µM 0% | [4]; at 1.2 µM 0% | [4]; at 3.7 µM 2% | [4]; at 11.0 µM 5% | [4]; at 33.0 µM 6% | [4]; at 100.0 µM 5% | [5]; at 1.2 µM 0% | [5]; at 3.7 µM 2% | [5]; at 11.0 µM 2% | [5]; at 33.0 µM 3% | [5]; at 100.0 µM 1% | [6]; at 1.2 µM -2% | [6]; at 3.7 µM -1% | [6]; at 11.0 µM 0% | [6]; at 33.0 µM -1% | [6]; at 100.0 µM 1% | [7]; at 1.2 µM 0% | [7]; at 3.7 µM -1% | [7]; at 11.0 µM -3% | [7]; at 33.0 µM 0% | [7]; at 100.0 µM 2% | [8]; at 1.2 µM -2% | [8]; at 3.7 µM -2% | [8]; at 11.0 µM -2% | [8]; at 33.0 µM -2% | [8]; at 100.0 µM 2%
